PubChem BioAssay AID1224830 | NIAID – 2016
This is a random part of about 18,000 deposited reagents. About 2,900 of them (16%) were called active. 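Calls are made per well; low scores hint the gene aids the LPS response, high scores that it dampens it.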 Repeated entries: four replicate wells of each siRNA pool.

- Test: 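Host factors that control LPS-induced TNF expression in human macrophages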 (primary screen)
- Cells: human THP-1 monocytic leukaemia cells, TNF dual-luciferase reporter clone, PMA-differentiated to macrophage-like cells
- Knock-down reagent: siRNA pool against human genes, 50 nM
- Duration: LPS for 4 h, given about 3 days after siRNA transfection
- Challenge: bacterial LPS (TLR4 ligand), 10 ng/ml
- Measurement: 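TNF firefly reporter luminescence divided by renilla, normalised to the plate median, then turned into a robust z-score for each replicate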
- Direction: TNF reporter robust z-score: higher = stronger TNF reporter response to LPS
- Hit rule: 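a well is active when its z-score exceeds 2.8 or falls below -1.5; control wells carry no call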

| gene knocked down | PubChem SID | TNF reporter robust z-score | Outcome |
| --- | --- | --- | --- |
| FN3KRP | SID315459372 | -0.82 | inactive |
| FN3KRP | SID315459372 | -0.16 | inactive |
| FN3KRP | SID315459372 | -0.43 | inactive |
| FN3KRP | SID315459372 | 0.08 | inactive |
| DEPP1 | SID315454573 | 1.49 | inactive |
| DEPP1 | SID315454573 | 0.22 | inactive |
| DEPP1 | SID315454573 | -0.72 | inactive |
| DEPP1 | SID315454573 | -0.47 | inactive |
| STXBP5 | SID315461983 | 2.51 | inactive |
| STXBP5 | SID315461983 | 2.68 | inactive |
| STXBP5 | SID315461983 | 1.12 | inactive |
| STXBP5 | SID315461983 | 2.83 | active |
| STAT1 | SID315451669 | -1.52 | active |
| STAT1 | SID315451669 | -1.5 | inactive |
| STAT1 | SID315451669 | -1.39 | inactive |
| STAT1 | SID315451669 | -0.59 | inactive |
| ZNF257 | SID315461207 | 2.62 | inactive |
| ZNF257 | SID315461207 | 2.31 | inactive |
| ZNF257 | SID315461207 | 0.31 | inactive |
| ZNF257 | SID315461207 | 0.37 | inactive |
| CNTN5 | SID315456949 | -0.66 | inactive |
| CNTN5 | SID315456949 | -1.29 | inactive |
| CNTN5 | SID315456949 | -0.43 | inactive |
| CNTN5 | SID315456949 | -0.39 | inactive |
| BCL2L11 | SID315453756 | -0.14 | inactive |
| BCL2L11 | SID315453756 | -0.06 | inactive |
| BCL2L11 | SID315453756 | -0.91 | inactive |
| BCL2L11 | SID315453756 | 0.71 | inactive |
| NPTN | SID315455881 | 0.58 | inactive |
| NPTN | SID315455881 | 0.39 | inactive |
| NPTN | SID315455881 | 0.16 | inactive |
| NPTN | SID315455881 | 1.01 | inactive |
| TFDP1 | SID315451836 | -0.49 | inactive |
| TFDP1 | SID315451836 | 0.97 | inactive |
| TFDP1 | SID315451836 | 0.6 | inactive |
| TFDP1 | SID315451836 | 1.04 | inactive |
| APOL5 | SID315459823 | 0 | inactive |
| APOL5 | SID315459823 | -0.23 | inactive |
| APOL5 | SID315459823 | -0.33 | inactive |
| APOL5 | SID315459823 | 0.09 | inactive |
| RASSF7 | SID315452383 | -0.42 | inactive |
| RASSF7 | SID315452383 | -1.06 | inactive |
| RASSF7 | SID315452383 | -0.97 | inactive |
| RASSF7 | SID315452383 | -0.38 | inactive |
| OR4D2 | SID315461617 | 3.02 | active |
| OR4D2 | SID315461617 | 2.72 | inactive |
| OR4D2 | SID315461617 | 2.27 | inactive |
| OR4D2 | SID315461617 | 2.74 | inactive |
| SNX29P1 | SID315464742 | 0.32 | inactive |
| SNX29P1 | SID315464742 | 1.08 | inactive |
| SNX29P1 | SID315464742 | 1.88 | inactive |
| SNX29P1 | SID315464742 | -0.34 | inactive |

Hits, of those listed so far:
| gene knocked down | PubChem SID | TNF reporter robust z-score | Outcome |
| --- | --- | --- | --- |
| STXBP5 | SID315461983 | 2.83 | active |
| STAT1 | SID315451669 | -1.52 | active |
| OR4D2 | SID315461617 | 3.02 | active |

More entries:
| gene knocked down | PubChem SID | TNF reporter robust z-score | Outcome |
| --- | --- | --- | --- |
| ALDH9A1 | SID315447273 | -0.75 | inactive |
| ALDH9A1 | SID315447273 | -0.78 | inactive |
| ALDH9A1 | SID315447273 | -1.29 | inactive |
| ALDH9A1 | SID315447273 | -0.36 | inactive |
| INTS5 | SID315459813 | 1.5 | inactive |
| INTS5 | SID315459813 | 1.69 | inactive |
| INTS5 | SID315459813 | 0.3 | inactive |
| INTS5 | SID315459813 | 1.08 | inactive |
| TRAM2 | SID315453490 | -0.15 | inactive |
| TRAM2 | SID315453490 | 0.41 | inactive |
| TRAM2 | SID315453490 | -0.38 | inactive |
| TRAM2 | SID315453490 | -0.8 | inactive |
| MYBPHL | SID315464155 | -0.86 | inactive |
| MYBPHL | SID315464155 | -1.01 | inactive |
| MYBPHL | SID315464155 | -1.22 | inactive |
| MYBPHL | SID315464155 | -1.43 | inactive |
| POLL | SID315456045 | 0.87 | inactive |
| POLL | SID315456045 | 2.07 | inactive |
| POLL | SID315456045 | 5.13 | active |
| POLL | SID315456045 | -0.28 | inactive |
| GLCCI1 | SID315461185 | 0.3 | inactive |
| GLCCI1 | SID315461185 | -0.22 | inactive |
| GLCCI1 | SID315461185 | 0.29 | inactive |
| GLCCI1 | SID315461185 | -0.03 | inactive |
| LDAH | SID315458721 | 0.81 | inactive |
| LDAH | SID315458721 | -0.09 | inactive |
| LDAH | SID315458721 | 1.24 | inactive |
| LDAH | SID315458721 | 0.44 | inactive |
| MEFV | SID315449934 | -1.33 | inactive |
| MEFV | SID315449934 | -1.46 | inactive |
| MEFV | SID315449934 | -0.2 | inactive |
| MEFV | SID315449934 | -1 | inactive |
| VHLL | SID315464673 | 0.32 | inactive |
| VHLL | SID315464673 | -0.49 | inactive |
| VHLL | SID315464673 | 0.52 | inactive |
| VHLL | SID315464673 | 0.6 | inactive |
| PPP2CA | SID315450749 | 1.66 | inactive |
| PPP2CA | SID315450749 | -0.12 | inactive |
| PPP2CA | SID315450749 | 0.76 | inactive |
| PPP2CA | SID315450749 | 1 | inactive |
| KRIT1 | SID315447737 | 1.16 | inactive |
| KRIT1 | SID315447737 | 4.53 | active |
| KRIT1 | SID315447737 | -0.27 | inactive |
| KRIT1 | SID315447737 | 0.91 | inactive |
| MGLL | SID315454775 | -0.35 | inactive |
| MGLL | SID315454775 | -0.07 | inactive |
| MGLL | SID315454775 | 0.06 | inactive |
| MGLL | SID315454775 | -0.24 | inactive |
| PCDHB10 | SID315458007 | -0.33 | inactive |
| PCDHB10 | SID315458007 | 0.35 | inactive |
| PCDHB10 | SID315458007 | -0.1 | inactive |
| PCDHB10 | SID315458007 | 0.12 | inactive |
| NDFIP1 | SID315459802 | 0.46 | inactive |
| NDFIP1 | SID315459802 | 1.47 | inactive |
| NDFIP1 | SID315459802 | 1.1 | inactive |
| NDFIP1 | SID315459802 | 0.68 | inactive |
| GPX8 | SID315465003 | -0.7 | inactive |
| GPX8 | SID315465003 | -0.45 | inactive |
| GPX8 | SID315465003 | -0.55 | inactive |
| GPX8 | SID315465003 | -0.79 | inactive |
